Test results as given in patent publication EP1946778A1, “Active substance combination for the treatment of diabetes” (Laboratorios del Dr. Esteve S.A., priority 2007, dated 2008).
For at least one compound, name, drawing or mass did not settle the structure.

Key:
Format in all cases: in vivo
[1] = Feeding study in female DIO Wistar rats (COMPOUND A, COMPOUND B): body weight and food intake; settings: dietary-induced obese female Wistar rats; 10 and 30 mg/kg po once daily for 28 days
Procedure: (§1) The experiment was performed on female Wistar rats (originally in the weight range 250-300 g). The rats were housed in pairs in polypropylene cages with solid floors and sawdust bedding at a temperature of 21±4°C and 55±20% humidity. Animals were maintained on a reverse phase light-dark cycle (lights off for 8 h from 09.30-17.30 h) during which time the room was illuminated by red light. Animals had free access to powdered high fat diet (VRF1 plus 20% lard), ground chocolate, ground peanuts and tap water at all times. The three different diets were contained in separate glass feeding jars with aluminum lids with a 3-4 cm hole cut in it to allow access to the food. Animals were housed in pairs for twelve weeks for the induction of obesity. Animals were then housed singly in polypropylene cages with wire grid floors to enable the food intake of each rat to be recorded. Polypropylene trays with cage pads were placed beneath each cage to detect any food spillage. Animals were accustomed to these new conditions (individual housing and the wire-grid floor cages) for at least 14 days before the start of the baseline readings.
(§2) Approximately a week before the start of the study, animals were weighed (to the nearest 0.1 g using an electronic top-pan balance) and allocated into 3 weight-matched treatment groups, each containing 9-10 animals. […]
Food intake and body weight were measured once daily. […]

[2] = Carcass composition (fat, water, protein, ash), female DIO Wistar rats (COMPOUND A, COMPOUND B); settings: obese female Wistar rats, vs vehicle
[3] = Plasma glycerol and triacylglycerol assay, female DIO Wistar rats (COMPOUND A, COMPOUND B); settings: obese female Wistar rats; 10 mg/kg po once daily for 28 days
Procedure: as §1, with “Animals were housed in pairs for twelve weeks for the induction of obesity.” left out, “Polypropylene trays with cage pads were placed beneath each cage to detect any food spillage.” left out, “readings. […]” for “readings.”
Plasma triacylglycerol was determined by modification of a discrete assay kit (Sigma Triglyceride determination kit, Cat No. TR0100) to a 96-well format. […]
A 2.5 mg/ml triolein equivalent glycerol standard was obtained from Sigma. […] Optical density readings were then transferred to GraphPad Prism and unknown values extrapolated from a linear regression fit to the standard curve. […]

[4] = Plasma NEFA assay, female DIO Wistar rats (COMPOUND A, COMPOUND B); settings: obese female Wistar rats; 10 mg/kg po once daily for 28 days
Procedure: as §1, §2
Non-esterified (or free) fatty acids (NEFA) were determined by modification of a commercial clinical analyser assay kit (Wako NEFA C ACS-ACOD method) to a 96-well format. […] After exactly 10 minutes, 150 µl of reagent B was added and the plate incubated for a further 10 minutes after which optical density at 540 nm was determined using a Molecular Devices VERSAmax tunable microplate reader. Optical density readings were then transferred to GraphPad Prism and values for plasma samples extrapolated from a linear regression fit to the standard curve. […]

[5] = 10 and 30 mg/kg po once daily for 28 days

Compound: O=C(NN1CCCCC1)C1=NN(c2ccc(Cl)cc2Cl)[C@H](c2ccc(Cl)cc2)C1 [COMPOUND B, (S)-N-piperidinyl-5-(4-chlorophenyl)-1-(2,4-dichlorophenyl)-4,5-dihydro-1H-pyrazole-3-carboxamide]
- food intake [1]: moderate reductions of food intake
- total water content of the carcasses (weight per rat) ([2]; 10 mg/kg po once daily for 28 days): did not significantly alter
- total water content of the carcasses (weight per rat) ([2]; 30 mg/kg po once daily for 28 days): did not significantly alter
- total ash content of the carcasses (weight per rat) [2, 5]: did not significantly alter
- total protein content of the carcasses (weight per rat) [2, 5]: did not significantly alter
- plasma glycerol levels, effect vs vehicle [3]: without effect
- plasma NEFA levels, effect compared to the vehicle-treated control group [4]: without effect
